# Some of the results follow. This is a noisy data set.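 Tm was set to 64 °C where no melting was found, and many curves are irregular.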
# The chains behind the UniProt entries cited, without tags or fusion partners. Where a name states a change or a piece, a line headed by the entry shows the natural chain unless it says otherwise.
# UniProt P30825: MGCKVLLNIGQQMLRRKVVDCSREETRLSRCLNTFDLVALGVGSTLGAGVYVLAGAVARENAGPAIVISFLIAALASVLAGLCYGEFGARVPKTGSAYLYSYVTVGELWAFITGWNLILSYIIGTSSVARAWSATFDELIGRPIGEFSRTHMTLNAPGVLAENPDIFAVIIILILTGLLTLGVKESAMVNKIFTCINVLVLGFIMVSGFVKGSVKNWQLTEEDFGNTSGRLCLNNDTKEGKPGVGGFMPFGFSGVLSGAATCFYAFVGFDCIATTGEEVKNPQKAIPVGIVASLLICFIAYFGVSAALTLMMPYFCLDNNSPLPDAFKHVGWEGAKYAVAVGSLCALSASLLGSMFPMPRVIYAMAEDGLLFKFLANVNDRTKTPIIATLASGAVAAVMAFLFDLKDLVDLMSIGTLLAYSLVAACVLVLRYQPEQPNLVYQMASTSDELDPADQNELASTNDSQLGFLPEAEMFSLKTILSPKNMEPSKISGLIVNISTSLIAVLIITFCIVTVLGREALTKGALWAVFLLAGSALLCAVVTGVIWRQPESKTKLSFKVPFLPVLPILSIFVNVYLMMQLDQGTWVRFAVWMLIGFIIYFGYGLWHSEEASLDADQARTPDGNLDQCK
# UniProt P31040: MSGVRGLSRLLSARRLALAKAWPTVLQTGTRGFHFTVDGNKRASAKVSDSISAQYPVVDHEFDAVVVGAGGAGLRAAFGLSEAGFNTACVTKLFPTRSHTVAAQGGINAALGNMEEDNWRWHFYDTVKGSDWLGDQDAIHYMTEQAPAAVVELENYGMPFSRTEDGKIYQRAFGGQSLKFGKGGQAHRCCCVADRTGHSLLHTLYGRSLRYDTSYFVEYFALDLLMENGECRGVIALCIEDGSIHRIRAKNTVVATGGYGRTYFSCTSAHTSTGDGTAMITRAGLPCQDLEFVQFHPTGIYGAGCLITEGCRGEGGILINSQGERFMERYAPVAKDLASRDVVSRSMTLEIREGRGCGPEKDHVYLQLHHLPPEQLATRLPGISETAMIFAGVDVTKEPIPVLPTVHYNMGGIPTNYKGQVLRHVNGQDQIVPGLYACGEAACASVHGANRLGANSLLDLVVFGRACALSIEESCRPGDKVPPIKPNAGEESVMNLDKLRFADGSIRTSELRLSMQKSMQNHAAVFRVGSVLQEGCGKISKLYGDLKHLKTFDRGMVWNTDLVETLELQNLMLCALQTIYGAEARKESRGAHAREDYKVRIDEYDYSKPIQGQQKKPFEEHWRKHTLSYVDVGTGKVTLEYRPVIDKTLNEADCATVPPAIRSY
# UniProt P33552, whole entry: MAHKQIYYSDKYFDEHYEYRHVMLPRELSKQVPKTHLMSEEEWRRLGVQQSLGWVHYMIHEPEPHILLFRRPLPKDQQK
# UniProt P23284: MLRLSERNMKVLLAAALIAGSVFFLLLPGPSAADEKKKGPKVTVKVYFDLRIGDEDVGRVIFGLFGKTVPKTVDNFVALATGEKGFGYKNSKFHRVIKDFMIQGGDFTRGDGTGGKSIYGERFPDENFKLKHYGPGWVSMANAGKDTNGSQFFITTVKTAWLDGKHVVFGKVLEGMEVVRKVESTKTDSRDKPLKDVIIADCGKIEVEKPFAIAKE
# UniProt P32455: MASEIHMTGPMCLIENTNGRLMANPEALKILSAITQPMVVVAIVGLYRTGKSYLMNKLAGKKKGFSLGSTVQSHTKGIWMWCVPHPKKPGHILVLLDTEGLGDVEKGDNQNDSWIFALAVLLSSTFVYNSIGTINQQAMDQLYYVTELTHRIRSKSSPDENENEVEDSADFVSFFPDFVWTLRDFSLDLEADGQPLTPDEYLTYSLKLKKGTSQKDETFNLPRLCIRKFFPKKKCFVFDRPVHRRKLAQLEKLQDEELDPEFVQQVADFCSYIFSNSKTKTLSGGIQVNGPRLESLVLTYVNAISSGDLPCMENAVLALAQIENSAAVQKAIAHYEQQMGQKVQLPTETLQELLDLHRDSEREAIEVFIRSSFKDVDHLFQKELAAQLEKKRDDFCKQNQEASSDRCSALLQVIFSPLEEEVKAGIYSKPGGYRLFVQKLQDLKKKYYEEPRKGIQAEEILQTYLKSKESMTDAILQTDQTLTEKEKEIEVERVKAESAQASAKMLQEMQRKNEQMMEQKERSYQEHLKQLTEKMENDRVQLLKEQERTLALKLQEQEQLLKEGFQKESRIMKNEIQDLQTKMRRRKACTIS
# UniProt P22676: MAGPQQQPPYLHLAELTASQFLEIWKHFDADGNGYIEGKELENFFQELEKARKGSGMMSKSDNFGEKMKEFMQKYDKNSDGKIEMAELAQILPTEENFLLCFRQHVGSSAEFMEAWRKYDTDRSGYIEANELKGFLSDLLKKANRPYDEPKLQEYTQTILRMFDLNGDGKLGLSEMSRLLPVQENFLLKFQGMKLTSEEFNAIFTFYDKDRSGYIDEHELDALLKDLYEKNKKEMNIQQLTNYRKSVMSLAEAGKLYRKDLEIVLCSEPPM
# UniProt P23511, whole entry: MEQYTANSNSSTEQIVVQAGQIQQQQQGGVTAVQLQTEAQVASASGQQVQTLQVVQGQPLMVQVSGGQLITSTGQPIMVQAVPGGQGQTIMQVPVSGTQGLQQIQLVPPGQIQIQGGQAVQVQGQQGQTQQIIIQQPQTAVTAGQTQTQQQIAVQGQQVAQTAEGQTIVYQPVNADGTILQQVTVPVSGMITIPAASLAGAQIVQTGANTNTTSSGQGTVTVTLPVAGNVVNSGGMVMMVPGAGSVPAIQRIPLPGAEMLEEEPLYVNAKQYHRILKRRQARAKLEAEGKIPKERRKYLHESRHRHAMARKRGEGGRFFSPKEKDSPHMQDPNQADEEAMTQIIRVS
# UniProt P35240: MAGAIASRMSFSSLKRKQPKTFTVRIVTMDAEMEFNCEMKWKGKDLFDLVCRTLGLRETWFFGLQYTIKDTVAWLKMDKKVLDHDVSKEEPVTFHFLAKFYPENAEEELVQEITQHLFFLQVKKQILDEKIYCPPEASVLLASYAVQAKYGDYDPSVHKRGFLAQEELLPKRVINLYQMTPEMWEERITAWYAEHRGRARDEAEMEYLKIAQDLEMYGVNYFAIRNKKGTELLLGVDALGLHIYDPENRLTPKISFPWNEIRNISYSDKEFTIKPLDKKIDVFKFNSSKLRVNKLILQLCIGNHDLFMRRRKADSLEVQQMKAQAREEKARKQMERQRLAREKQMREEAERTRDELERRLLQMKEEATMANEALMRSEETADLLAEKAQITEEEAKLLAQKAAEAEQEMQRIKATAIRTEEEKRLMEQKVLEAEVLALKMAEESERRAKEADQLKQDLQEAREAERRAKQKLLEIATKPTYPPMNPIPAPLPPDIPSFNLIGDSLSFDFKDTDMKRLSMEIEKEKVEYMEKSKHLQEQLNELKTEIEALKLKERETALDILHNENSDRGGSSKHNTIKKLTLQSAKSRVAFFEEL
# UniProt P26599: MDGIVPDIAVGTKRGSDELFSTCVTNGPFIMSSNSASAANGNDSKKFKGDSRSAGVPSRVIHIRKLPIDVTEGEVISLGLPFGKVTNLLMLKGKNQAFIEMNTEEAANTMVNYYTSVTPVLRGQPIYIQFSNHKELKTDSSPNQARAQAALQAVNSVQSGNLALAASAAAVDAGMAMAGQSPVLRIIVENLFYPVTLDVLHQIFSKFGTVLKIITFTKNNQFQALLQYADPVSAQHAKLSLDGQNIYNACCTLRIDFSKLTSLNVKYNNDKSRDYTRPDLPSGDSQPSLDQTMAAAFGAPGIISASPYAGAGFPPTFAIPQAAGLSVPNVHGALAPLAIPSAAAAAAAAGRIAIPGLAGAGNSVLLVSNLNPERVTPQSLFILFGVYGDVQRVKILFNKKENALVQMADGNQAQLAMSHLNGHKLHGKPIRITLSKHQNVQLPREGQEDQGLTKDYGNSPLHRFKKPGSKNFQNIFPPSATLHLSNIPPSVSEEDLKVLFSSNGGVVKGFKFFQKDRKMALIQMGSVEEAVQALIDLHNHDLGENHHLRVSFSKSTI
# UniProt P26232: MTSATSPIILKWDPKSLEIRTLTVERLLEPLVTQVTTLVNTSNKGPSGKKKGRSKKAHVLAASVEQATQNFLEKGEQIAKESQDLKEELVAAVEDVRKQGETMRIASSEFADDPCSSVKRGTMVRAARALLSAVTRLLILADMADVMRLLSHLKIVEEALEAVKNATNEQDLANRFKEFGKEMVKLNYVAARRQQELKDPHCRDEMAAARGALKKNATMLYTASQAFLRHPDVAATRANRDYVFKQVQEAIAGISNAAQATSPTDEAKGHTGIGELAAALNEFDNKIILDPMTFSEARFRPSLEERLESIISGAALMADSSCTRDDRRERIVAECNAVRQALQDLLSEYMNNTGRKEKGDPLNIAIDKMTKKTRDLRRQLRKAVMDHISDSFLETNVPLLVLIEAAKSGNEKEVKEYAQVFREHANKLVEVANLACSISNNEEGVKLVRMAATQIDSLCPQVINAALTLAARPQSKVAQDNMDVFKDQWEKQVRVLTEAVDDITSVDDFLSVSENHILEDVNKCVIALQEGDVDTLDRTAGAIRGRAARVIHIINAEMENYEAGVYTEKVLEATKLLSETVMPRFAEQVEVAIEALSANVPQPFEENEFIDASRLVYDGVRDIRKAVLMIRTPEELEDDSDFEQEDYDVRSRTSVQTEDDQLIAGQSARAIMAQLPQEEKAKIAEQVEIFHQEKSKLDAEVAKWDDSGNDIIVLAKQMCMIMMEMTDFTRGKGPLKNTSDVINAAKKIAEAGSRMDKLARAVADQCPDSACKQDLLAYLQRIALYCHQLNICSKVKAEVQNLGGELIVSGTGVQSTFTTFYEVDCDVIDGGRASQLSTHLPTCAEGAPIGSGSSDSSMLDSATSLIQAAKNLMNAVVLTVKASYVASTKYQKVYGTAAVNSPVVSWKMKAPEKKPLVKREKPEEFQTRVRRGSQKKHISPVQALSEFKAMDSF
# UniProt P23258, whole entry: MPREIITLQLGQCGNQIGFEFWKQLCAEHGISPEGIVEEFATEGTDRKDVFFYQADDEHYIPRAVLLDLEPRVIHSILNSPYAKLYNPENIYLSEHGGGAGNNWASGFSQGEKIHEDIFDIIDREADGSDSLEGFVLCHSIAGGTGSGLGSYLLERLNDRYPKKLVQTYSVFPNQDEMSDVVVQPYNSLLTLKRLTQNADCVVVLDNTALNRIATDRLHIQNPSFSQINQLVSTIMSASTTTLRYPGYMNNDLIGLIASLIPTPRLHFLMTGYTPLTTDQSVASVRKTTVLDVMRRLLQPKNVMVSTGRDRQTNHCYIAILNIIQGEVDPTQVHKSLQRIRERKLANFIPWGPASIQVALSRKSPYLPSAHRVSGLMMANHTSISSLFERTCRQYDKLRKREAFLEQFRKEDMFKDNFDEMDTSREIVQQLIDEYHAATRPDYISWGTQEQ
# UniProt P35637: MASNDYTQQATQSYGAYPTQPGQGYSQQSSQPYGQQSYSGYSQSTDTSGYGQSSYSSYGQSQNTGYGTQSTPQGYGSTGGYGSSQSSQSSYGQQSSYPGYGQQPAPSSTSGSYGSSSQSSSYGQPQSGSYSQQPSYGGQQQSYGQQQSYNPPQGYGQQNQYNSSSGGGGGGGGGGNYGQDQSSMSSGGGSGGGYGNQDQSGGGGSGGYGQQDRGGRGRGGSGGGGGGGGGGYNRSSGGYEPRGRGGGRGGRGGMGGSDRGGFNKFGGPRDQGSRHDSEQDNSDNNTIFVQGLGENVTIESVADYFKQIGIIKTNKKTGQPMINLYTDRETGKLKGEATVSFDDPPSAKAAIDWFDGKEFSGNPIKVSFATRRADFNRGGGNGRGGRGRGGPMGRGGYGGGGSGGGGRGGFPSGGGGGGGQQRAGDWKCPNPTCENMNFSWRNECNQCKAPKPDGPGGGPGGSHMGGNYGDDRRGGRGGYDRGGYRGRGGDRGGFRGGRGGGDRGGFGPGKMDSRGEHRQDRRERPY
# UniProt P35080, whole entry: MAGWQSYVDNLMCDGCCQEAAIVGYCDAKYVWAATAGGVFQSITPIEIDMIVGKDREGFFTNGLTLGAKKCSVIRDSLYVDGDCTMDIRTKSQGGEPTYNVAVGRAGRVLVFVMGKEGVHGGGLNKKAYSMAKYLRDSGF
# UniProt P36404: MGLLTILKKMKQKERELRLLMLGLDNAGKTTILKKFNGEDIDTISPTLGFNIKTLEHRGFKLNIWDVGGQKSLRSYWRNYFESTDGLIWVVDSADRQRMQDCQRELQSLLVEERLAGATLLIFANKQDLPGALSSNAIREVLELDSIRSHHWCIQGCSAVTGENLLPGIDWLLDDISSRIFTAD
# UniProt P35226: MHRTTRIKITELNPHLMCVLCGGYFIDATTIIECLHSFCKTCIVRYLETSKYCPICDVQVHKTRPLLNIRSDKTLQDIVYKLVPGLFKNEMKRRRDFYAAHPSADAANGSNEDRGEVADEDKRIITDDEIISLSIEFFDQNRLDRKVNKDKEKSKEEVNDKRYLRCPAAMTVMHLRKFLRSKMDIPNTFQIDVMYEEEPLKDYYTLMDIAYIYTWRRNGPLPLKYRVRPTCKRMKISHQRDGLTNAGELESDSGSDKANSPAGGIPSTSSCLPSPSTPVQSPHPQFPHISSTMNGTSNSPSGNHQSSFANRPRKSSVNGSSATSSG
# Compound: CCc1cnccc1C(=O)Nc1cc2c(cc1F)NC(=O)CC2
# Test: melting temperature shift (DMSO Tm minus MBE1-treated Tm) in cellular thermal proteome profiling; higher = less thermal stabilization by MBE1 (negative = stabilized by MBE1)
# Conditions: A375
Target,melting temperature shift (MBE1 concentration: 100 nM) [°C],melting temperature shift (MBE1 concentration: 1 uM) [°C]
SLC7A1 (UniProt P30825),-2.8,-0.483
UniProt P21579,-1.68,0.922
GTF2H1 (UniProt P32780),-0.653,-0.263
ACP1 (UniProt P24666),-0.673,0.268
SDHA (UniProt P31040),-0.508,-0.2
ABCD3 (UniProt P28288),-0.577,0.677
MARK3 (UniProt P27448),-2.25,-0.629
CKS2 (UniProt P33552),-1,-1.79
PPIB (UniProt P23284),-0.996,-2.34
DNMT1 (UniProt P26358),-0.523,-0.0427
RPL22 (UniProt P35268),-0.775,-0.244
UniProt P32455,3.08,0.751
POLR2B (UniProt P30876),0.679,0.104
MCC (UniProt P23508),-0.397,-0.0183
RFX1 (UniProt P22670),-0.181,-0.127
UniProt P22676,-0.0738,-0.872
NFYA (UniProt P23511),-0.422,-2.34
GTF2E1 (UniProt P29083),-0.772,-0.485

Target,melting temperature shift (MBE1 concentration: 100 nM) [°C],melting temperature shift (MBE1 concentration: 1 uM) [°C]
MCM3 (UniProt P25205),-0.805,0.299
NF2 (UniProt P35240),1.4,0.653
PTBP1 (UniProt P26599),0,-0.0733
UniProt P26232,-0.402,0.228
TUBG1 (UniProt P23258),-0.469,-0.148
ATIC (UniProt P31939),-0.785,0.872
SPR (UniProt P35270),-0.248,0.418
RFC2 (UniProt P35250),0.867,0.269
FUS (UniProt P35637),-4.1,-4.06
RRM1 (UniProt P23921),-0.282,0.208
UQCRC1 (UniProt P31930),-0.44,-0.202
RPL12 (UniProt P30050),-0.739,0.855
UniProt P35080,-0.101,1.44
UniProt P23743,-0.137,0.155
ARL2 (UniProt P36404),-0.59,0.456
RPS3 (UniProt P23396),-0.714,-0.177
GCSH (UniProt P23434),-3.6,1.37
UniProt P35226,-0.325,-0.772

# Reprinted at random: 2 records from the list
Target,melting temperature shift (MBE1 concentration: 100 nM) [°C],melting temperature shift (MBE1 concentration: 1 uM) [°C]
RPL12 (UniProt P30050),-0.739,0.855
TUBG1 (UniProt P23258),-0.469,-0.148

# Reference: the supplement of paper PMC12595434, “Development of retinoid nuclear receptor pathway antagonists through targeting aldehyde dehydrogenase 1A3” (iScience, 2025)
